PubChem BioAssay AID504774, Drosophila RNAi Screening Center – 2011

Screen: 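Knock-downs that shift viability of MMS-exposed cells relative to untreated ones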 (primary screen)
System: Drosophila Kc167 cells
Reagent: long dsRNA against Drosophila genes, about 0.25 µg dsRNA per well
Time to read-out: about 6 days: 3 days knock-down, then 3 days with or without MMS
Challenge: methyl methanesulphonate 0.004% (w/v) for 3 days after knock-down
Measurement: 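ATP-dependent luminescence as a measure of live cells in MMS-exposed wells, quantile normalised within each plate, with replicate values also given as a mean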
Scale: mean viability with MMS: higher = more surviving cells after MMS
The screen tested about 23,000 reagents; this is an unselected part of those with a known target gene and a result. 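Values are quantile-normalised luminescence on an arbitrary scale; higher means more cells surviving MMS.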 Reagents against one gene are numbered here. Not all columns of the deposit are shown. Reagent sequences are not shown.

mtSSB → mean viability with MMS = 3.62e6
Moe → mean viability with MMS = 3.40e6
Elp5 → mean viability with MMS = 3.55e6
CG5516 #1 → mean viability with MMS = 3.61e6
CG5516 #2 → mean viability with MMS = 3.36e6
l(3)72Dr → mean viability with MMS = 3.57e6
LS2 → mean viability with MMS = 3.51e6
emc #1 → mean viability with MMS = 1.37e6
emc #2 → mean viability with MMS = 3.67e6
eIF3b → mean viability with MMS = 3.08e6
Nepl5 → mean viability with MMS = 3.76e6
Sec5 → mean viability with MMS = 3.65e6
ChT → mean viability with MMS = 3.41e6
dgt4 → mean viability with MMS = 3.69e6
Vps50 → mean viability with MMS = 3.67e6
Ddrgk1 → mean viability with MMS = 3.68e6

Entries above whose gene name starts with C or c (3):
CG5516 #1 → mean viability with MMS = 3.61e6
CG5516 #2 → mean viability with MMS = 3.36e6
ChT → mean viability with MMS = 3.41e6

More entries follow.
Src42A → mean viability with MMS = 3.52e6
CG14668 → mean viability with MMS = 3.54e6
Nt5c → mean viability with MMS = 3.69e6
Ide → mean viability with MMS = 3.60e6
Hecw #1 → mean viability with MMS = 3.57e6
Hecw #2 → mean viability with MMS = 3.65e6
CG1360 → mean viability with MMS = 3.44e6
RnrL → mean viability with MMS = 3.24e6
CG31549 → mean viability with MMS = 3.57e6
CG17154 → mean viability with MMS = 3.52e6
CG14434 → mean viability with MMS = 3.79e6
CG10481 → mean viability with MMS = 3.45e6
Trf5 → mean viability with MMS = 3.52e6
trn → mean viability with MMS = 3.50e6
LysS → mean viability with MMS = 3.63e6
CG3556 → mean viability with MMS = 3.38e6
nop5 → mean viability with MMS = 3.33e6
CG14492 → mean viability with MMS = 3.51e6
CG4480 → mean viability with MMS = 3.45e6
